The test deals with p62 L341V-AIM peptide (human). The test is described as follows: native MS; ESI-MS competition binding under nondenaturing conditions: each hATG8 titrated into an equimolar mixture of WT-AIM and L341V-AIM peptides (each 10 μM); read-out is the ratio of peak intensities of unbound WT and L341V peptides; ratios given for 20 μM hATG8; two independent experiments; both ….

Amino acid sequences for entries named in this document (tags omitted).
UniProt P60520: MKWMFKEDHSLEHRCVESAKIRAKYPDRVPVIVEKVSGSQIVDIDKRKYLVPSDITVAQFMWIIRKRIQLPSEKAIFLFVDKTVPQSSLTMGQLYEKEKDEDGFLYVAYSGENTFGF

Consider one substance from article PMC8762078, “An ALS-associated variant of the autophagy receptor SQSTM1/p62 reprograms binding selectivity toward the autophagy-related hATG8 proteins” (The Journal of Biological Chemistry, 2021).

No constants are given. Whether binding was seen depends on the method and setting. Some entries that bind do so weakly or less than the wild type.

In the case of GABARAPL2 (from UniProt P60520 1-117), the binding result was “binds”.
